Experimental data from US10563263B2, “Genetic polymorphisms associated with statin response and cardiovascular diseases, methods of detection and uses thereof” (CELERA CORPORATION, priority 2010, dated 2020).
Further values from the same series stand in other lists.

System: revascularization, unstable angina requiring hospitalization, MI, all causes of death, or stroke
Assay: PROVE IT-TIMI 22: SNP by treatment interaction (high-dose atorvastatin vs standard-dose pravastatin), logistic regression (synergy index), primary composite endpoint
Type: in vivo, human

CC(C)c1c(C(=O)Nc2ccccc2)c(-c2ccccc2)c(-c2ccc(F)cc2)n1CC[C@@H](O)C[C@@H](O)CC(=O)O [Atorvastatin, atorvastatin]
OR (rs1424648 allele T, DOM, Imputed, atorvastatin vs pravastatin): 1.609
OR (rs1429321 allele A, DOM, Imputed, atorvastatin vs pravastatin): 1.519
OR (rs1429326 allele T, ADD, Imputed, atorvastatin vs pravastatin): 1.404
OR (rs1429326 allele T, DOM, Imputed, atorvastatin vs pravastatin): 1.574
OR (rs1434507 allele A ADD Imputed): 1.053
OR (rs1434508 allele T ADD Imputed): 1.053
OR (rs1435205 allele A ADD Imputed): 1.021
OR (rs1443928 allele C REC Imputed): 0.9918
OR (rs1444741 allele A, DOM, Imputed, atorvastatin vs pravastatin): 0.9777
OR (rs1449916 allele C, DOM, Imputed, atorvastatin vs pravastatin): 0.7246
OR (rs1459523 allele A, ADD, Imputed, atorvastatin vs pravastatin): 1.051
OR (rs1463768 allele G REC Genotyped): 1.844
OR (rs1463769 allele G REC Imputed): 1.844
OR (rs1472435 allele A ADD Imputed): 0.5361
OR (rs1472435 allele A DOM Imputed): 0.5361
OR (rs1476714 allele A DOM Imputed): 0.5924
OR (rs1476714 allele A, DOM, Imputed, atorvastatin vs pravastatin): 0.5924
OR (rs1486723 allele C, REC, Imputed, atorvastatin vs pravastatin): 0.5711
OR (rs1495159 allele G ADD Imputed): 1.318
OR (rs1495375 allele A DOM Imputed): 0.7102
OR (rs1495375 allele A, ADD, Imputed, atorvastatin vs pravastatin): 0.7715
OR (rs1495375 allele A, DOM, Imputed, atorvastatin vs pravastatin): 0.7102
OR (rs1495376 allele T DOM Imputed): 0.774
OR (rs1495377 allele G DOM Imputed): 0.7814
OR (rs1495381 allele T REC Imputed): 2.08
OR (rs1495381 allele T, REC, Imputed, atorvastatin vs pravastatin): 2.08
OR (rs1498061 allele C, ADD, Imputed, atorvastatin vs pravastatin): 0.6227
OR (rs1498992 allele G DOM Imputed): 0.7274
OR (rs1498992 allele G, DOM, Imputed, atorvastatin vs pravastatin): 0.7274
OR (rs1499001 allele T DOM Imputed): 0.7573
OR (rs1499001 allele T, DOM, Imputed, atorvastatin vs pravastatin): 0.7573
OR (rs1512988 allele A DOM Imputed): 0.7185
OR (rs1512988 allele A, ADD, Imputed, atorvastatin vs pravastatin): 0.7806
OR (rs1512988 allele A, DOM, Imputed, atorvastatin vs pravastatin): 0.7185
OR (rs1512989 allele T DOM Imputed): 0.7185
OR (rs1512989 allele T, ADD, Imputed, atorvastatin vs pravastatin): 0.7806
OR (rs1512989 allele T, DOM, Imputed, atorvastatin vs pravastatin): 0.7185
OR (rs1512991 allele T ADD Imputed): 0.7106
OR (rs1512991 allele T DOM Imputed): 0.6965
OR (rs1512991 allele T, ADD, Imputed, atorvastatin vs pravastatin): 0.7106
OR (rs1512991 allele T, DOM, Imputed, atorvastatin vs pravastatin): 0.6965
OR (rs1524310, allele G, ADD, Imputed, PROVE-IT, vs pravastatin): 1.063
OR (rs1527059, allele A, DOM, Imputed, PROVE-IT, vs pravastatin): 0.4524
OR (rs1527450 allele T ADD Imputed): 1.146
OR (rs1535866, allele G, DOM, Imputed, PROVE-IT, vs pravastatin): 1.405
OR (rs1567740, allele T, ADD, Imputed, PROVE-IT, vs pravastatin): 0.7805
OR (rs1567740, allele T, DOM, Imputed, PROVE-IT, vs pravastatin): 0.7204
OR (rs1567740 allele T DOM Imputed): 0.7204
OR (rs1572573, allele A, DOM, Imputed, PROVE-IT, vs pravastatin): 1.019
OR (rs1572573 allele A ADD Imputed): 1.012
OR (rs1572573 allele A DOM Imputed): 1.019
OR (rs1577497, allele C, REC, Imputed, PROVE-IT, vs pravastatin): 0.899
OR (rs1581514, allele T, ADD, Imputed, PROVE-IT, vs pravastatin): 1.06
OR (rs1582321, allele T, DOM, Imputed, PROVE-IT, vs pravastatin): 0.9009
OR (rs1582322, allele A, DOM, Imputed, PROVE-IT, vs pravastatin): 0.8697
OR (rs1582323, allele A, DOM, Imputed, PROVE-IT, vs pravastatin): 0.8751
OR (rs1584003 allele C DOM Imputed): 0.6043
OR (rs1584005 allele C DOM Imputed): 0.6032
OR (rs1585771 allele G ADD Imputed): 0.9914
OR (rs1592015 allele G DOM Imputed): 1.138
OR (rs1592485, allele C, DOM, Imputed, PROVE-IT, vs pravastatin): 0.8723
OR (rs1594885 allele A ADD Imputed): 1.083
OR (rs1600954, allele T, ADD, Imputed, PROVE-IT, vs pravastatin): 1.193
OR (rs1603232 allele A DOM Imputed): 0.7502
OR (rs1614565 allele C DOM Imputed): 0.7578
OR (rs1648200 allele G ADD Imputed): 1.299
OR (rs1700400 allele T ADD Imputed): 0.9427
OR (rs1705237 allele A DOM Imputed): 0.7578
OR (rs1705261, allele A, REC, Imputed, PROVE-IT, vs pravastatin): 2.005
OR (rs1705261 allele A REC Imputed): 2.005
OR (rs1782328 allele A (A1), ADD, Imputed, atorvastatin vs pravastatin): 0.96
OR (rs1796337 allele T (A1), DOM, Imputed, atorvastatin vs pravastatin): 0.6991
OR (rs1798083 allele C (A1), DOM, Imputed, atorvastatin vs pravastatin): 0.7428
OR (rs1798085 allele T (A1), DOM, Imputed, atorvastatin vs pravastatin): 0.7578
OR (rs1798086 allele T (A1), DOM, Imputed, atorvastatin vs pravastatin): 0.7565
OR (rs1798089 allele C (A1), REC, Imputed, atorvastatin vs pravastatin): 2.307
OR (rs1798090 allele C (A1), REC, Imputed, atorvastatin vs pravastatin): 2.295
OR (rs1832222, allele G, DOM, Imputed, PROVE-IT, vs pravastatin): 1.344
OR (rs1832222 allele G (A1), DOM, Imputed, atorvastatin vs pravastatin): 1.344
OR (rs1838104 allele A (A1), ADD, Imputed, atorvastatin vs pravastatin): 0.9138
OR (rs1861327, allele G, DOM, Imputed, PROVE-IT, vs pravastatin): 0.8914
OR (rs1868581, allele G, ADD, Imputed, PROVE-IT, vs pravastatin): 1.033
OR (rs1868616 allele G (A1), ADD, Imputed, atorvastatin vs pravastatin): 0.8179
OR (rs1874313, allele A, ADD, Imputed, PROVE-IT, vs pravastatin): 0.7883
OR (rs1874313, allele A, DOM, Imputed, PROVE-IT, vs pravastatin): 0.7338
OR (rs1874313 allele A (A1), DOM, Imputed, atorvastatin vs pravastatin): 0.7338
OR (rs1876409, allele C, DOM, Imputed, PROVE-IT, vs pravastatin): 1.204
OR (rs1884902 allele C (A1), REC, Imputed, atorvastatin vs pravastatin): 0.9755
OR (rs1913201, allele G, ADD, Imputed, PROVE-IT, vs pravastatin): 0.7137
OR (rs1913201, allele G, DOM, Imputed, PROVE-IT, vs pravastatin): 0.7026
OR (rs1913201 allele G (A1), ADD, Imputed, atorvastatin vs pravastatin): 0.7137
OR (rs1913201 allele G (A1), DOM, Imputed, atorvastatin vs pravastatin): 0.7026
OR (rs1936871, allele G, DOM, Genotyped, PROVE-IT, vs pravastatin): 0.7975
OR (rs1944279 allele A (A1), ADD, Imputed, atorvastatin vs pravastatin): 1.083
OR (rs1961157, allele T, REC, Imputed, PROVE-IT, vs pravastatin): 1.145
OR (rs1987179, allele T, ADD, Imputed, PROVE-IT, vs pravastatin): 0.617
OR (rs1987179, allele T, DOM, Imputed, PROVE-IT, vs pravastatin): 0.5176
OR (rs1987179 allele T (A1), DOM, Imputed, atorvastatin vs pravastatin): 0.5176
OR (rs1990023, allele T, DOM, Imputed, PROVE-IT, vs pravastatin): 0.593
OR (rs1990023 allele T (A1), DOM, Imputed, atorvastatin vs pravastatin): 0.593
OR (rs1995025, allele C, DOM, Imputed, PROVE-IT, vs pravastatin): 1.717
OR (rs2016194, allele G, DOM, Imputed, PROVE-IT, vs pravastatin): 0.5934
OR (rs2016194 allele G (A1), DOM, Imputed, atorvastatin vs pravastatin): 0.5934
OR (rs2024789 allele C (A1), ADD, Imputed, atorvastatin vs pravastatin): 0.9942
OR (rs2024902, allele A, ADD, Imputed, PROVE-IT, vs pravastatin): 1.087
OR (rs2024902 allele A (A1), ADD, Imputed, atorvastatin vs pravastatin): 1.087
OR (rs2025107, allele A, DOM, Imputed, PROVE-IT, vs pravastatin): 0.982
OR (rs2025107 allele A (A1), ADD, Imputed, atorvastatin vs pravastatin): 0.9899
OR (rs2025107 allele A (A1), DOM, Imputed, atorvastatin vs pravastatin): 0.982
OR (rs2025108, allele T, DOM, Imputed, PROVE-IT, vs pravastatin): 0.982
OR (rs2025108 allele T (A1), ADD, Imputed, atorvastatin vs pravastatin): 0.9899
OR (rs2025108 allele T (A1), DOM, Imputed, atorvastatin vs pravastatin): 0.982
OR (rs2052428, allele C, DOM, Imputed, PROVE-IT, vs pravastatin): 0.7089
OR (rs2053230, allele C, ADD, Imputed, PROVE-IT, vs pravastatin): 0.8193
OR (rs2062448, allele T, DOM, Imputed, PROVE-IT, vs pravastatin): 0.913
OR (rs2062448 allele T (A1), ADD, Imputed, atorvastatin vs pravastatin): 0.913
OR (rs2062448 allele T (A1), DOM, Imputed, atorvastatin vs pravastatin): 0.913
OR (rs2063420, allele C, REC, Imputed, PROVE-IT, vs pravastatin): 0.8647
OR (rs2063591, allele C, ADD, Imputed, PROVE-IT, vs pravastatin): 0.7255
OR (rs2063591, allele C, DOM, Imputed, PROVE-IT, vs pravastatin): 0.6936
OR (rs2063591 allele C (A1), ADD, Imputed, atorvastatin vs pravastatin): 0.7255
OR (rs2063591 allele C (A1), DOM, Imputed, atorvastatin vs pravastatin): 0.6936
OR (rs2065604 allele C (A1), DOM, Imputed, atorvastatin vs pravastatin): 1.177
OR (rs2066238 allele T (A1), DOM, Imputed, atorvastatin vs pravastatin): 1.138
OR (rs2068051 allele G (A1), ADD, Imputed, atorvastatin vs pravastatin): 0.9214
OR (rs2095586, allele A, DOM, Imputed, PROVE-IT, vs pravastatin): 1.347
OR (rs2095586 allele A (A1), DOM, Imputed, atorvastatin vs pravastatin): 1.347
